PubChem BioAssay AID248 (DTP/NCI, 2004)
The list shows only some results of the screen, not a fair sample: it is rich in T/C values a quarter to a half above the control, in often repeated tests (any T/C) and in doses without a T/C. Other doses and runs of a compound stand elsewhere. T/C: endpoint of the treated group in % of that of the vehicle group. Some doses have a count of surviving animals in place of a T/C: the source holds a T/C of zero for them, seemingly a mark for toxic or unscored doses. Some survivor counts are full or nearly so, which does not show that the dose was tolerated: survival well below the control is almost never listed, so the zero probably covers shortened survival too. Counts of survivors are from the toxicity check (mostly the fifth day) where no day follows; animals may have died later. Schedules are NCI's codes, read here as Q, the interval in days (D) or hours (H), X, the number of doses. Some entries were tested several times; the values are given in rising order. Where survival is the endpoint, the PubChem record calls one and a half times the control and up active, and a quarter to a half above the control has no call in these data; cut-offs in other NCI protocols can differ. Marks such as (2×) say how often a value occurs here. Some T/C values are followed by the survivors on the day toxicity was checked, most often the fifth; where none is given, no animal had died by that day.

Test system: L1210 leukemia ip in BDF1 mice, survival T/C
Test: NCI In Vivo Anticancer Drug Screen. Data for tumor model L1210 Leukemia (intraperitoneal) in B6D2F1 (BDF1) mice
Details: T/C endpoint: mean survival time, higher T/C = longer survival
[1] = dose: 400.0 mg/kg/injection, schedule: Q01DX001 (ip), vehicle: saline
[2] = dose: 100.0 mg/kg/injection, schedule: Q01DX009 (ip), vehicle: saline with Tween-80
[3] = dose: 200.0 mg/kg/injection, schedule: Q01DX009 (ip), vehicle: saline with Tween-80
[4] = dose: 400.0 mg/kg/injection, schedule: Q01DX009 (ip), vehicle: saline with Tween-80
[5] = dose: 100.0 mg/kg/injection, schedule: Q01DX009 (ip), vehicle: Klucel (hydroxypropylcellulose) (HPC)
[6] = dose: 400.0 mg/kg/injection, schedule: Q04DX003 (ip), vehicle: saline with Tween-80
[7] = dose: 400.0 mg/kg/injection, schedule: Q01DX009 (ip), vehicle: Klucel (hydroxypropylcellulose) (HPC)
[8] = dose: 50.0 mg/kg/injection, schedule: Q01DX009 (ip), vehicle: Klucel (hydroxypropylcellulose) (HPC)
[9] = dose: 200.0 mg/kg/injection, schedule: Q01DX009 (ip), vehicle: Klucel (hydroxypropylcellulose) (HPC)

[Br][Pb]([c]1ccccc1)([c]1ccccc1)[c]1ccccc1
survivor count (dose: 12.5 mg/kg/injection, schedule: Q04DX003 (ip), vehicle: saline): 6 of 6 | survivor count (dose: 25.0 mg/kg/injection, schedule: Q04DX003 (ip), vehicle: saline): 2 of 6 | survivor count (dose: 50.0 mg/kg/injection, schedule: Q04DX003 (ip), vehicle: saline): 0 of 6 | survivor count (dose: 100.0 mg/kg/injection, schedule: Q04DX003 (ip), vehicle: saline): 1 of 6 | survivor count (dose: 200.0 mg/kg/injection, schedule: Q04DX003 (ip), vehicle: saline): 0 of 6 | survivor count (dose: 400.0 mg/kg/injection, schedule: Q04DX003 (ip), vehicle: saline): 0 of 6

CNC(=S)SC
survivor count [1]: 1 of 4

CC(=O)Nc1ccc(OC(=O)Nc2cccc(Cl)c2C)cc1
T/C [2]: 87 and 102 % of control | survivor count [2]: 3 of 3 and 6 of 6 | T/C [3]: 93, 94 (2×), 97 % of control | survivor count [4]: 6 of 6

O=c1c2cc([N+](=O)[O-])cc3c2-c2c4c(cc([N+](=O)[O-])cc14)c(O)c1cc([N+](=O)[O-])cc(c3=O)c21
T/C (dose: 264.0 mg/kg/injection, schedule: Q04DX003 (ip), vehicle: acetone): 139 % of control | T/C (dose: 400.0 mg/kg/injection, schedule: Q04DX003 (ip), vehicle: acetone): 126 and 132 % of control

COc1ccc(Cl)cc1NC(=O)c1ccc(C(=O)Nc2cc(Cl)ccc2OC)cc1
survivor count [5]: 6 of 6

COC(=O)c1c(Cl)c(Cl)c(Cl)c(Cl)c1C(=O)OC
survivor count [4]: 3 of 6 | survivor count [6]: 2 of 6

CCN(C(=O)Nc1ccc(SC)cc1)c1ccccc1
survivor count [7]: 5 of 6

N#CC1=C(N)CCCC1
survivor count (dose: 200.0 mg/kg/injection, schedule: Q04DX003 (ip), vehicle: saline with Tween-80): 0 of 6 | survivor count [6]: 0 of 6

CCC(Br)C(=O)O (configuration not stated)
survivor count (dose: 200.0 mg/kg/injection, schedule: Q01DX009 (ip), vehicle: saline): 1 of 3 and 3 of 6 | survivor count [1]: 0 of 6 | survivor count (dose: 400.0 mg/kg/injection, schedule: Q04DX002 (ip), vehicle: saline): 2 of 3

Cc1cc(C(=O)O)cc(C)c1NC(=O)N(CCCl)N=O
T/C (dose: 8.0 mg/kg/injection, schedule: Q01DX001 (ip), vehicle: other): 141 % of control | T/C (dose: 16.0 mg/kg/injection, schedule: Q01DX001 (ip), vehicle: other): 147 % of control | T/C (dose: 23.0 mg/kg/injection, schedule: Q01DX001 (ip), vehicle: other): 147 % of control | T/C (dose: 31.0 mg/kg/injection, schedule: Q01DX001 (ip), vehicle: other): 143 % of control | survivor count (dose: 93.0 mg/kg/injection, schedule: Q01DX001 (ip), vehicle: other): 4 of 6 | survivor count (dose: 125.0 mg/kg/injection, schedule: Q01DX001 (ip), vehicle: other): 5 of 6 | survivor count (dose: 187.0 mg/kg/injection, schedule: Q01DX001 (ip), vehicle: other): 2 of 6 | survivor count (dose: 250.0 mg/kg/injection, schedule: Q01DX001 (ip), vehicle: other): 0 of 6 | survivor count (dose: 375.0 mg/kg/injection, schedule: Q01DX001 (ip), vehicle: other): 0 of 6 | survivor count (dose: 500.0 mg/kg/injection, schedule: Q01DX001 (ip), vehicle: other): 0 of 6

Cc1cc(Cl)cc2sc(=S)[nH]c12
T/C [7]: 134 % of control [2 of 3 alive]

N#CCC(=O)[O][Sn]([c]1ccccc1)([c]1ccccc1)[c]1ccccc1
survivor count (dose: 6.25 mg/kg/injection, schedule: Q01DX009 (ip), vehicle: saline with Tween-80): 6 of 6 | survivor count (dose: 12.5 mg/kg/injection, schedule: Q01DX009 (ip), vehicle: saline with Tween-80): 0 of 6 | survivor count (dose: 25.0 mg/kg/injection, schedule: Q01DX009 (ip), vehicle: saline with Tween-80): 0 of 6 | survivor count (dose: 25.0 mg/kg/injection, schedule: Q04DX002 (ip), vehicle: saline with Tween-80): 1 of 3 | survivor count (dose: 50.0 mg/kg/injection, schedule: Q04DX002 (ip), vehicle: saline with Tween-80): 0 of 3 | survivor count (dose: 100.0 mg/kg/injection, schedule: Q04DX002 (ip), vehicle: saline with Tween-80): 0 of 3 | survivor count (dose: 200.0 mg/kg/injection, schedule: Q04DX002 (ip), vehicle: saline with Tween-80): 0 of 3 | survivor count (dose: 400.0 mg/kg/injection, schedule: Q04DX002 (ip), vehicle: saline with Tween-80): 0 of 3

CCN(CCO)c1ccc(N=O)cc1
survivor count (dose: 20.0 mg/kg/injection, schedule: Q01DX001 (ip), vehicle: saline): 2 of 4 | survivor count (dose: 40.0 mg/kg/injection, schedule: Q01DX001 (ip), vehicle: saline): 2 of 4 | survivor count (dose: 80.0 mg/kg/injection, schedule: Q01DX001 (ip), vehicle: saline): 0 of 4 | survivor count (dose: 100.0 mg/kg/injection, schedule: Q01DX001 (ip), vehicle: saline): 2 of 4 | survivor count (dose: 200.0 mg/kg/injection, schedule: Q01DX001 (ip), vehicle: saline): 0 of 4 | survivor count [1]: 0 of 4

Cc1ccc2c(c1C)-c1c(ccc(C)c1C)C(=O)C2=O
T/C (dose: 200.0 mg/kg/injection, schedule: Q04DX002 (ip), vehicle: Klucel (hydroxypropylcellulose) (HPC)): 136 % of control [2 of 3 alive]

COc1ccc(N(N=O)C(C)C)cc1
survivor count (dose: 50.0 mg/kg/injection, schedule: Q01DX009 (ip), vehicle: saline with Tween-80): 3 of 3

CCOc1ccc2c(ccc(/C=C\c3ccc(O)c4ccccc34)[n+]2C)c1
survivor count (dose: 300.0 mg/kg/injection, schedule: Q01DX001 (ip), vehicle: saline): 2 of 6

Clc1c(C(Cl)(Cl)Cl)nc2ccccc2c1Br
survivor count [8]: 3 of 3 | survivor count [5]: 1 of 3 | survivor count [9]: 1 of 3

c1ccc(-c2cc(-c3ccccc3)[s+]s2)cc1
survivor count [3]: 3 of 6

CC1CCC2C(CCC3CCCCC32)C1 (configuration not stated)
survivor count [1]: 2 of 4

CC(C)(CO)CN1CCCCC1
survivor count [3]: 3 of 6

CCCC[P+](CCCC)(CCCC)Cc1ccc([N+](=O)[O-])cc1
T/C [8]: 129 % of control [2 of 3 alive] | survivor count [5]: 1 of 6 and 1 of 3 | survivor count [9]: 0 of 6 | survivor count [7]: 0 of 6

O=[N+]([O-])c1ccc(N2CCC(CCCC3CCN(c4ccc([N+](=O)[O-])cc4[N+](=O)[O-])CC3)CC2)c([N+](=O)[O-])c1
survivor count [9]: 6 of 6 | survivor count [7]: 0 of 6

CCOc1ccc(NC(C)=O)c(OC(C)=O)c1
survivor count (dose: 150.0 mg/kg/injection, schedule: Q01DX001 (ip), vehicle: carboxymethylcellulose (CMC)): 6 of 6 | survivor count (dose: 300.0 mg/kg/injection, schedule: Q01DX001 (ip), vehicle: carboxymethylcellulose (CMC)): 2 of 6

COc1cc2cnc3c4cc(OC)c(OC)cc4ccc3c2cc1OC
survivor count (dose: 400.0 mg/kg/injection, schedule: Q01DX009 (ip), vehicle: saline): 5 of 6

S=C=Nc1cccc(N=C=S)c1
survivor count (dose: 40.0 mg/kg/injection, schedule: Q01DX001 (ip), vehicle: acetone): 0 of 4 | survivor count (dose: 50.0 mg/kg/injection, schedule: Q01DX001 (ip), vehicle: acetone): 0 of 4 | survivor count (dose: 80.0 mg/kg/injection, schedule: Q01DX001 (ip), vehicle: acetone): 0 of 4 | survivor count (dose: 100.0 mg/kg/injection, schedule: Q01DX001 (ip), vehicle: acetone): 0 of 4 | survivor count (dose: 200.0 mg/kg/injection, schedule: Q01DX001 (ip), vehicle: acetone): 0 of 4 | survivor count (dose: 400.0 mg/kg/injection, schedule: Q01DX001 (ip), vehicle: acetone): 0 of 4

CC(C)=CCCC/C=N/NC(N)=O
survivor count (dose: 300.0 mg/kg/injection, schedule: Q01DX001 (ip), vehicle: acetone): 0 of 6
